According to publication PMC12040169 (PLOS Biology, 2025):
Some of the results follow.

The compounds below were run on T1, CTL2-GFP (C. trachomatis L2/434/Bu, GFP-expressing). Conditions: bulk GFP, single well; 28.5 h, 10 µM; inhibitor.
T1 construct: L2/434/Bu, GFP-expressing
Design: species or system HeLa; Intracellular C. trachomatis growth in HeLa cells, bulk GFP fluorescence relative to DMSO

| Structure (SMILES) | % of control remaining |
| --- | --- |
| Cn1c(=O)n(C)c2cc(S(=O)(=O)NCCC(=O)O)ccc21 [CBK267565] | 118.75% |
| COCC(=O)N1c2ccccc2CC[C@@H]1C(=O)OC [CBK285472] | 131.259% |
| CC(C)(C)OC(=O)NC(C)(C)C(=O)N1CC(C(=O)O)C(c2cc3ccccc3o2)C1 (centres unmarked) [CBK003236] | 102.502% |
| CCCC(=O)Nc1ccc2c(c1)nc1n2CCN(Cc2ccccc2)C1 [CBK267129] | 110.206% |
| CCNC(=S)N(CCc1ccccc1)C1CC(=O)N(c2ccc(F)cc2)C1=O (centres unmarked) [CBK262941] | 91.4344% |
| Cc1onc(-c2ccccc2)c1CNC(=O)/C=C/c1ccc2c(c1)OCO2 [CBK144085] | 123.975% |
| O=C(c1ccccn1)N(CCc1ccccc1)c1nc2ccccc2s1 [CBK295151] | 102.696% |
| CCCC(C(=O)NC(C)(C)CN1CCCCC1)n1nc(C)cc1C (centres unmarked) [CBK282061] | 136.444% |
| CCCS(=O)(=O)c1ccc(NC(=O)Nc2ccc(Cl)cc2Cl)cc1 [CBK008564] | 53.3975% |
| CCOC(=O)c1c(-c2ccc(Cl)cc2)csc1NC(=O)CCCC(=O)O [CBK296929] | 115.757% |
| O=C(CN1CCN(c2ccc([N+](=O)[O-])cn2)CC1)Nc1ccc2c(c1)OCO2 [CBK074679] | 93.9118% |
| Cn1c2ccccc2c2nnc(SCCCC(=O)c3ccc(F)cc3)nc21 [CBK268830] | 134.989% |
| O=C1C(C2CCN(Cc3ccc4ncccc4c3)CC2)CC=CCN1Cc1ccccc1 (centres unmarked) [CBK286269] | 112.543% |
| NC(Cc1ccccc1)CN(CC1(c2ccc(Cl)cc2)CC1)C(=O)Nc1ccc2c(c1)OCO2 (centres unmarked) [CBK002342C] | 39.4153% |
| CN(CCc1cccnc1)CC(=O)Nc1cccc(Cl)c1 [CBK304108] | 132.156% |
| CC(=O)c1ccc(-c2nccnc2NCc2ccc(C(F)(F)F)cc2)s1 [CBK037983] | 117.255% |
| C[C@H](c1ccccc1)n1c(=O)[nH]c2ncc(-c3cccc(/C=C/C(=O)O)c3)nc21 [CBK064983] | 88.8093% |
| CC(=O)Nc1ccc(S(=O)(=O)Oc2ccc(C3C4=C(CC(C)(C)CC4=O)N=C4c5ccccc5C(=O)C43)cc2)cc1 (centres unmarked) [CBK262964] | 100% |
| CN1CCC(Oc2nc3cc(Cl)c(Cl)cc3nc2N2CCCC2)CC1 [CBK115290] | 122.394% |
| CCOc1cc(-c2noc(CCC(=O)N3CCN(C)CC3)n2)ccc1OC [CBK269513] | 123.126% |
| Nc1c(C(=O)NCc2ccccc2)c2nc3ccccc3nc2n1CCO [CBK267201] | 88.794% |
| O=C(CCN1C(=O)c2cc(Cl)c(Cl)cc2C1=O)Nc1cccc(-c2cnc3ccccc3n2)c1 [CBK268575] | 92.946% |
| O=C(Cc1ccccc1C(=O)O)Nc1ccc(-n2cncn2)c(Cl)c1 [CBK286756] | 138.646% |
| COc1ccc(NC(=O)CCn2ccc3ccncc32)c(C)c1 [CBK282860] | 93.5217% |
| CC(C)Nc1nccnc1Sc1nc[nH]n1 [CBK115205] | 104.034% |
| COc1cc(/C=N/NC(=O)C2COc3ccccc3O2)cc([N+](=O)[O-])c1O (centres unmarked) [CBK261480] | 105.067% |

Arranged by number of heavy atoms (smallest number first): four of the compounds above.

| Structure (SMILES) | % of control remaining |
| --- | --- |
| CN(CCc1cccnc1)CC(=O)Nc1cccc(Cl)c1 [CBK304108] | 132.156% |
| CN1CCC(Oc2nc3cc(Cl)c(Cl)cc3nc2N2CCCC2)CC1 [CBK115290] | 122.394% |
| CC(C)(C)OC(=O)NC(C)(C)C(=O)N1CC(C(=O)O)C(c2cc3ccccc3o2)C1 (centres unmarked) [CBK003236] | 102.502% |
| O=C1C(C2CCN(Cc3ccc4ncccc4c3)CC2)CC=CCN1Cc1ccccc1 (centres unmarked) [CBK286269] | 112.543% |

(continued)

| Structure (SMILES) | % of control remaining |
| --- | --- |
| O=C(NC(c1ccccc1)c1ccsc1)C1CCN(S(=O)(=O)c2cccc(Cl)c2)CC1 (centres unmarked) [CBK060188] | 123.629% |
| COc1ccc(CNS(=O)(=O)c2cc(OCC(N)=O)c(C)cc2Cl)cc1 [CBK266495] | 147.116% |
| Cn1c(=O)c2c(ncn2CC(=O)Nc2cccnc2)n(C)c1=O [CBK133286] | 108.996% |
| Cc1ccnn1CCC(=O)N1CCCC1c1cc2cccnc2[nH]1 (centres unmarked) [CBK282230] | 111.689% |
| CCN(C)c1c(C)nc2c(OCc3cccc(Cl)c3)cccn12 [CBK147310] | 79.943% |
| COc1ccc(CNC2CCCc3c2cnn3C)c(OC)c1 (centres unmarked) [CBK304875] | 119.515% |
| Cn1nc(CO)c2c1CCN(CC(=O)Nc1nc(C(C)(C)C)cs1)C2 [CBK307161] | 112.9% |
| CCc1ccc(CNC(=O)Cn2nnc(-c3ccc(CNC4CCOCC4)cc3)n2)cc1 [CBK161029C] | 65.2788% |
| COC1C(O)C(CO)OC1n1cc(C)c(N)nc1=O (centres unmarked) [CBK201227] | 83.1963% |
| O=c1c2ccccc2[nH]c(=S)n1CCCN1CCOCC1 [CBK092141] | 131.921% |
| CN1CCC(CN(C)CC2CCCN(Cc3ccccc3)C2)C1 (centres unmarked) [CBK282946] | 130.035% |
| COc1cc2c(cc1OC)C1(CCOCC1)CNC2CC(c1ccccc1)c1ccccc1 (centres unmarked) [CBK014382] | 127.946% |
| CCOC(=O)C1CCN(S(=O)(=O)c2ccc(C(C)(C)C)cc2)CC1 [CBK051240] | 125.818% |
| Fc1ccc2[nH]c3c(c2c1)CCN1C(c2ccccn2)N2CCC31CC2 (centres unmarked) [CBK284431] | 122.537% |
| O=C(O)CCC(=O)N1c2ccccc2CC1c1ccccc1 (centres unmarked) [CBK286860] | 104.735% |
| Cc1nnc(Nc2ccc(F)cc2)c2ccccc12 [CBK287873] | 109.619% |
| CN(C)S(=O)(=O)N1CCN(c2ccc([N+](=O)[O-])c(NC3C4CC5CC(C4)CC3C5)c2)CC1 (centres unmarked) [CBK268986] | 135.719% |
| COc1ccc2[nH]cc(CCNC3CCc4cccc(OC)c4C3)c2c1 (centres unmarked) [CBK016569C] | 86.7606% |
| Cn1cc2c(n1)[C@H]1CN(C(=O)c3cc(C(F)(F)F)nn3C)C[C@H]1C2 [CBK283400] | 140.414% |
| Cn1cc(C(=O)N2CCC(c3ccccc3)C2)c2ccccc2c1=O (centres unmarked) [CBK281921] | 105.29% |
| O=c1[nH]nc(SCCOc2c(Cl)c(Cl)c(Cl)c(Cl)c2Cl)c(=O)[nH]1 [CBK262794] | 100% |
| COc1ccc(S(=O)(=O)Nc2cc(N3CCCC3)c3occc3c2)cc1OC [CBK061975] | 126.828% |
| NC(=O)COc1ccc(C2Nc3ccccc3C(=O)N2C2CC2)cc1 (centres unmarked) [CBK295198] | 143.147% |
| CC(C)(C)c1cc(C(=O)O)c(CN2CCOCC2)o1 [CBK264052] | 123.525% |
| Nc1nc(-n2cnnc2)nn1-c1ccccc1 [CBK265015] | 107.067% |
| Cc1cc(NC(=O)C(C)C)nc2c1c(=O)oc1ccccc12 [CBK287441] | 146.752% |

| Structure (SMILES) | % of control remaining |
| --- | --- |
| CC(Cc1ccccn1)NC(=O)C1CC2C=CC1C21CC1 (centres unmarked) [CBK282070] | 89.4744% |
| COc1ccc2nc(NC(=N)NC(=S)Nc3ccc(Cl)cc3)nc(C)c2c1 [CBK266677] | 113.94% |
| O=C(NC1(c2ccc(F)cc2)CCCC1)c1cnccn1 [CBK283595] | 132.91% |
| O=S(=O)([O-])c1cc(S(=O)(=O)O)ccc1Nc1cc2c(nc3ccccc3[n+]2-c2ccccc2)c2ccccc12 [CBK260997N] | 69.8565% |
| O=C1CC(c2ccccc2)CC(=O)N1c1ccc(N2CCOCC2)cc1 [CBK291191] | 117.097% |
| COc1cc(CN2CCC3(CC2)CN(CCO)c2ccccc23)cc(OC)c1OC [CBK131524] | 105.628% |
| CN1C(=O)COc2ccccc2CCCC[C@@H]2[C@H]1CCCN2C(=O)c1cc(=O)[nH]c(=O)[nH]1 [CBK292110] | 134.102% |
| CCN(CC)Cc1c(O)ccc2cc(-c3nc4ccccc4[nH]3)c(=O)oc12 [CBK263824] | 100% |
| Nc1nc(SCc2nnc(S)n2-c2ccccc2)nc2sc3c(c12)CCC3 [CBK301216K] | 106.867% |
| C#CCNC(=O)CC[C@H]1CNC(=O)[C@@H]2[C@@H](CCN2Cc2ccccc2)N1C [CBK289034] | 142.229% |
| Clc1cncc(-c2cc3ccccc3[nH]2)n1 [CBK154865] | 84.3117% |
| O=C(C[n+]1ccc(CCSCc2ccc3c4c(cccc24)CC3)cc1)c1ccc2c3c(cccc13)CC2 [CBK260881B] | 100% |
| O=C(NCC1COc2ccccc2O1)N1CCCC(CO)C1 (centres unmarked) [CBK156030] | 149.633% |
| Cc1nc2n(n1)C(C(=O)Nc1ccc(C)c(C)c1)CC(=O)N2 (centres unmarked) [CBK288223] | 101.202% |
| O=C(NCc1ccc(C(F)(F)F)cc1)[C@@H]1Cc2[nH]cnc2CN1C1CCOCC1 [CBK288981] | 127.387% |
| O=C(CCN1CCc2ccccc2C1)Nc1ccccc1F [CBK264202] | 112.245% |
| Cc1nc(C)n(CCCNc2cc(C(C)C)nc3ccnn23)n1 [CBK307497] | 123.909% |
| CC(=O)Nc1cccc(-c2nccnc2NS(C)(=O)=O)c1 [CBK050740] | 100% |
| CN(CC(=O)Nn1cnnc1)S(=O)(=O)c1ccc(Br)cc1 [CBK268597] | 129.268% |
| O=C(Cn1cccc2cc(C3CCCNC3)nc1-2)N1CCCCCC1 (centres unmarked) [CBK285088] | 118.793% |
| CCOC(=O)C1CCCN(C(=O)CCn2c(=O)oc3cc(Cl)ccc32)C1 (centres unmarked) [CBK304516] | 128.937% |
| O=C(CCSCc1nc2sc3c(c2c(=O)[nH]1)CCC3)N1CCC1 [CBK304536] | 152.264% |
| COCCCN1C(=O)c2[nH]nc(-c3cc(C)c(C)cc3O)c2C1c1ccc(SC)cc1 (centres unmarked) [CBK268884] | 74.1447% |
| COc1cccc(CSc2ccc(CN3CCOCC3)cc2F)c1 [CBK174976] | 112.371% |
| O=C(NC1CCS(=O)(=O)C1)c1cc2ccc(OC(F)(F)F)cc2[nH]1 (centres unmarked) [CBK305754] | 127.396% |
